These are yes or no findings as the source states them, for the method shown. Sequences can lack the tags named with a protein.

Sequences of proteins named here, by UniProt entry; tags and fusion partners are left off.
UniProt P54619: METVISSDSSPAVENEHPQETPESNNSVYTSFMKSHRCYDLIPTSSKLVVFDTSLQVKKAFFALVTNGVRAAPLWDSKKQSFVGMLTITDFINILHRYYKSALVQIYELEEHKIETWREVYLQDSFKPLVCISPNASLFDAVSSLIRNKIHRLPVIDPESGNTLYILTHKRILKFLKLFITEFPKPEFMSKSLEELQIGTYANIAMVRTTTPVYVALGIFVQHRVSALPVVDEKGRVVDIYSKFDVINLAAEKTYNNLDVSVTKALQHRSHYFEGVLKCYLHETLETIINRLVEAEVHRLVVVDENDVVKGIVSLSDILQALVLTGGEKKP

From PMC7930037 come the findings set out here.

The target of one test is T1, GST-tagged WBP2 (UniProt Q969T9).
T1 sequence: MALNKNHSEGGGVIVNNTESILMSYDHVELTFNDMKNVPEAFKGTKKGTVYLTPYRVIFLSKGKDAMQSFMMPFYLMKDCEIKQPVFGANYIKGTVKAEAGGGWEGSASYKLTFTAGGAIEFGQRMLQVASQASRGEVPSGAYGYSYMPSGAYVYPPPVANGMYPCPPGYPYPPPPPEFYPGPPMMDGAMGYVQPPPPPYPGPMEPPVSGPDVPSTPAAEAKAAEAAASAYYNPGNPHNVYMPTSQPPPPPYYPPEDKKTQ
The test can be described thus: pull-down; GST fusion from E. coli extract on glutathione-Sepharose 4B beads (2 h, 4 °C), incubated with purified Flag-tagged protein; eluted with 20 mM reduced glutathione; anti-Flag blot; purified GST as control; both purified.

In another test the target is GST-AMPKγ1 (UniProt P54619). Described as above.

With “Flag-tagged AMPKγ1 (from UniProt P54619 1-331)”, the binding result with GST-tagged WBP2 is “no binding”.

B1: Flag-tagged WBP2 (protein, UniProt Q969T9 1-261)
chain: MALNKNHSEGGGVIVNNTESILMSYDHVELTFNDMKNVPEAFKGTKKGTVYLTPYRVIFLSKGKDAMQSFMMPFYLMKDCEIKQPVFGANYIKGTVKAEAGGGWEGSASYKLTFTAGGAIEFGQRMLQVASQASRGEVPSGAYGYSYMPSGAYVYPPPVANGMYPCPPGYPYPPPPPEFYPGPPMMDGAMGYVQPPPPPYPGPMEPPVSGPDVPSTPAAEAKAAEAAASAYYNPGNPHNVYMPTSQPPPPPYYPPEDKKTQ
On to B1, for which the binding entry with GST-AMPKγ1 is listed as “no binding”.
